Experimental data reported in US20110312992A1, “Inhibitors of C-Kit and Uses Thereof” (priority 2006, published 2011).
For at least one compound, name, drawing or mass did not settle the structure.

System: OCI/AML3
Assay: MTT-based cell proliferation/toxicity assay, OCI/AML3
Parameters: species or system human
Details: OCI-AML3 expressing c-Kit, FIG. 6 / FIG. 10
Text: An MTT- (3,(4,5-dimethylthiazol-2-yl)-5-(3-carboxymethoxyphenyl)-2-(4-sulfophenyl)-2H-tetrazolium) based cell proliferation/toxicity assay system (Promega, Madison, Wis.) using cell lines, including the AML cell lines OCIM2 and OCI/AML3, was used to evaluate the effectiveness of the compounds as set forth herein in inhibition of c-Kit cellular activity.
AML cell lines OCIM2 and OCI/AML3 are human erythroleukemia lines and were provided by M. D. Minden, (Ontario Cancer Institute, Toronto, ON, Canada and as referenced in: Papayannopoulou et al., Blood (1988) 72:1029-1038; Wang et al., Leukemia (1989) 3: 236-249). […]
Briefly, cells were harvested at the logarithmic phase of their growth. They were then washed twice in RPMI 1640 containing 10% FCS and counted in a hemocytometer, and their viability was determined using 0.1% trypan blue staining. […] Immediately after incubation, absorbance was read using a 96-well plate reader at a wavelength of 490 nm. Each data point was determined six times before analysis.
While OCIM2 and OCI/AML3 are both AML cell lines, c-Kit is expressed to a much higher degree in the OCI/AML3 line versus OCIM2, as determined by the responsiveness to stem cell factor (SCF), which mediates c-Kit receptor dimerization, activation, and autophosphorylation (Blume-Jensen, et al., (1991) EMBO Journal 10, 4121-8).

Cc1nc(Nc2ncc(C(=O)Nc3c(C)cccc3Cl)s2)cc(N2CCN(CCO)CC2)n1 [Dasatinib, dasatinib, reference compound]
response of cell line to prior art compound: plateaued
